PubChem BioAssay AID1259254 – NCATS, 2017
Shown is a random part of about 59,000 reagents. Over the whole deposit, about 1,550 (2.6%) were called active. 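G2 share is only a proxy for re-replication; each gene was hit by three separate siRNAs, and active genes were retested.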 The numbers tell different reagents against one gene apart. Further read-outs or replicates are left out here. The record does not give: the amount of reagent.

- Test: 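Finding genes that stop cells copying their DNA twice in one cycle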 (primary screen)
- System: human HCT116 colorectal cancer cells
- Knock-down reagent: single siRNA against human genes
- Timing: 3 days
- Detection: 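Nuclei stained with Hoechst and imaged; cell-cycle phase assigned by DNA content; G2 share scaled per plate, non-targeting siRNA 0%, GMNN siRNA 100%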
- Scale: G2 robust z-score and G2 cells, % of GMNN control: higher = more G2 cells, more excess DNA replication
- Call rule: 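Active siRNAs have a G2 robust z of 5 or more median absolute deviations over the median, which in these data means about 38% or higher of GMNN control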

gene | siRNA no. | G2 robust z-score | G2 cells, % of GMNN control | Outcome
CD74 (CD74 molecule) | 1 | 0.43 | 5.99 | inactive
CD74 (CD74 molecule) | 2 | 2.09 | 17.6 | inactive
CD74 (CD74 molecule) | 3 | -0.273 | 1.04 | inactive
METTL27 (methyltransferase like 27) | 1 | 4.56 | 35.1 | inactive
METTL27 (methyltransferase like 27) | 2 | 1.1 | 10.7 | inactive
METTL27 (methyltransferase like 27) | 3 | 0.346 | 5.4 | inactive
CALHM2 (calcium homeostasis modulator family member 2) | 1 | -1.09 | -4.67 | inactive
CALHM2 (calcium homeostasis modulator family member 2) | 2 | 3.11 | 24.8 | inactive
CALHM2 (calcium homeostasis modulator family member 2) | 3 | 0.875 | 9.13 | inactive
GDE1 (glycerophosphodiester phosphodiesterase 1) | 1 | 1.65 | 14.6 | inactive
GDE1 (glycerophosphodiester phosphodiesterase 1) | 2 | 2.5 | 20.6 | inactive
GDE1 (glycerophosphodiester phosphodiesterase 1) | 3 | 2.36 | 19.6 | inactive
MPC2 | 1 | 4.38 | 33.8 | inactive
MPC2 | 2 | -0.77 | -2.45 | inactive
MPC2 | 3 | -0.512 | -0.635 | inactive
NSMCE3 (NSE3 component of SMC5/6 complex) | 1 | 0.812 | 8.68 | inactive
NSMCE3 (NSE3 component of SMC5/6 complex) | 2 | -0.395 | 0.187 | inactive
NSMCE3 (NSE3 component of SMC5/6 complex) | 3 | -0.676 | -1.79 | inactive
FEZ2 (fasciculation and elongation protein zeta 2) | 1 | 0.228 | 4.57 | inactive
FEZ2 (fasciculation and elongation protein zeta 2) | 2 | -0.693 | -1.91 | inactive
FEZ2 (fasciculation and elongation protein zeta 2) | 3 | 5.67 | 42.9 | active
GFRA1 (GDNF family receptor alpha 1) | 1 | 0.142 | 3.97 | inactive
GFRA1 (GDNF family receptor alpha 1) | 2 | -0.798 | -2.65 | inactive
GFRA1 (GDNF family receptor alpha 1) | 3 | 0.156 | 4.07 | inactive

Continued (3 carried over from the part before).
gene | siRNA no. | G2 robust z-score | G2 cells, % of GMNN control | Outcome
GFRA1 (GDNF family receptor alpha 1) | 1 | 0.142 | 3.97 | inactive
GFRA1 (GDNF family receptor alpha 1) | 2 | -0.798 | -2.65 | inactive
GFRA1 (GDNF family receptor alpha 1) | 3 | 0.156 | 4.07 | inactive
PAX3 (paired box 3) | 1 | -1.09 | -4.73 | inactive
PAX3 (paired box 3) | 2 | -0.54 | -0.831 | inactive
PAX3 (paired box 3) | 3 | -1.05 | -4.44 | inactive
CDC42EP1 (CDC42 effector protein 1) | 1 | 0.546 | 6.81 | inactive
CDC42EP1 (CDC42 effector protein 1) | 2 | -1.01 | -4.12 | inactive
CDC42EP1 (CDC42 effector protein 1) | 3 | 0.619 | 7.32 | inactive
ZNF230 (zinc finger protein 230) | 1 | 1.52 | 13.7 | inactive
ZNF230 (zinc finger protein 230) | 2 | -0.465 | -0.302 | inactive
ZNF230 (zinc finger protein 230) | 3 | -0.927 | -3.56 | inactive
PLAC8L1 (PLAC8 like 1) | 1 | -0.805 | -2.7 | inactive
PLAC8L1 (PLAC8 like 1) | 2 | -0.271 | 1.06 | inactive
PLAC8L1 (PLAC8 like 1) | 3 | 0.338 | 5.34 | inactive
PCDHB6 (protocadherin beta 6) | 1 | 4.31 | 33.3 | inactive
PCDHB6 (protocadherin beta 6) | 2 | 3 | 24.1 | inactive
PCDHB6 (protocadherin beta 6) | 3 | 2.45 | 20.2 | inactive
CKS2 (CDC28 protein kinase regulatory subunit 2) | 1 | 0.237 | 4.64 | inactive
CKS2 (CDC28 protein kinase regulatory subunit 2) | 2 | -0.656 | -1.65 | inactive
CKS2 (CDC28 protein kinase regulatory subunit 2) | 3 | 0.211 | 4.45 | inactive
AIFM3 (AIF family member 3) | 1 | 0.907 | 9.35 | inactive
AIFM3 (AIF family member 3) | 2 | -0.713 | -2.05 | inactive
AIFM3 (AIF family member 3) | 3 | -0.514 | -0.651 | inactive
GCNA (germ cell nuclear acidic peptidase) | 1 | -0.591 | -1.19 | inactive
GCNA (germ cell nuclear acidic peptidase) | 2 | 2.21 | 18.5 | inactive
GCNA (germ cell nuclear acidic peptidase) | 3 | -0.79 | -2.59 | inactive
NDUFAF7 (NADH:ubiquinone oxidoreductase complex assembly factor 7) | 1 | 0.591 | 7.12 | inactive
NDUFAF7 (NADH:ubiquinone oxidoreductase complex assembly factor 7) | 2 | -0.176 | 1.73 | inactive
NDUFAF7 (NADH:ubiquinone oxidoreductase complex assembly factor 7) | 3 | 1.3 | 12.1 | inactive
PRDM14 (PR/SET domain 14) | 1 | 0.125 | 3.84 | inactive
PRDM14 (PR/SET domain 14) | 2 | 0.61 | 7.26 | inactive
PRDM14 (PR/SET domain 14) | 3 | 3.84 | 30 | inactive
TMEM105 (TMEM105 long non-coding RNA) | 1 | -0.348 | 0.517 | inactive
TMEM105 (TMEM105 long non-coding RNA) | 2 | 2.19 | 18.4 | inactive
TMEM105 (TMEM105 long non-coding RNA) | 3 | 1.22 | 11.6 | inactive
LETM2 | 1 | -0.343 | 0.551 | inactive
LETM2 | 2 | 1.63 | 14.4 | inactive
LETM2 | 3 | -0.741 | -2.25 | inactive
MID1 (midline 1) | 1 | -1.09 | -4.69 | inactive
MID1 (midline 1) | 2 | -0.626 | -1.44 | inactive
MID1 (midline 1) | 3 | 0.961 | 9.73 | inactive
XCL1 (X-C motif chemokine ligand 1) | 1 | -0.198 | 1.57 | inactive
XCL1 (X-C motif chemokine ligand 1) | 2 | -0.382 | 0.278 | inactive
XCL1 (X-C motif chemokine ligand 1) | 3 | -0.399 | 0.161 | inactive
DDX27 (DEAD-box helicase 27) | 1 | 2.04 | 17.3 | inactive
DDX27 (DEAD-box helicase 27) | 2 | 0.831 | 8.82 | inactive
DDX27 (DEAD-box helicase 27) | 3 | 4.74 | 36.3 | inactive
